One data set concerns the target ESRRG (Homo sapiens) (UniProt P62508). The data set is described as follows: SELEX. As to conditions: 25 mM HEPES pH 7.4, 80 mM KCl, 0.2 mM EDTA, 1 mM MgCl2, 0.1 mM ZnSO4, 2.5 mM DTT, 50 ng/ul poly dI-dC, 0.1% BSA, 1 h room temperature, ligand 100 nM when included, high values mean tight binding, protein in a lysate after overexpression, protein details: HaloTag, only the motif is given.

Chains of the proteins cited; added tags and fusions are not shown. A change or cut given only in a name is not applied to a line headed by its entry. A line that says so, or that is headed by a name, gives the form on record, which may keep a tag or linker.
UniProt P62508: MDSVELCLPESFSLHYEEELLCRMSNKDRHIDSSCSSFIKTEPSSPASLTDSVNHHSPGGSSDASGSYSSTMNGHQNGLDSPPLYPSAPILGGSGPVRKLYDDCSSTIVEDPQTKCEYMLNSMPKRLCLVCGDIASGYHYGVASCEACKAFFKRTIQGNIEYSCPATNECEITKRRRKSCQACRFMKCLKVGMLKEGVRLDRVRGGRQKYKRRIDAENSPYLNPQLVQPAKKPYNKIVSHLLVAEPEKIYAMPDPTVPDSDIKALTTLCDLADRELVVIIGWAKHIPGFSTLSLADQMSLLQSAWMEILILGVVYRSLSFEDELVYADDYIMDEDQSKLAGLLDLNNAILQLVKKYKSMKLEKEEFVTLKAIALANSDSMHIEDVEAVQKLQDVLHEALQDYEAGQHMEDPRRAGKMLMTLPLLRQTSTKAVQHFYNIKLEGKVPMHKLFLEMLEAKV
ESRRB (Homo sapiens), one chain, as listed by the source: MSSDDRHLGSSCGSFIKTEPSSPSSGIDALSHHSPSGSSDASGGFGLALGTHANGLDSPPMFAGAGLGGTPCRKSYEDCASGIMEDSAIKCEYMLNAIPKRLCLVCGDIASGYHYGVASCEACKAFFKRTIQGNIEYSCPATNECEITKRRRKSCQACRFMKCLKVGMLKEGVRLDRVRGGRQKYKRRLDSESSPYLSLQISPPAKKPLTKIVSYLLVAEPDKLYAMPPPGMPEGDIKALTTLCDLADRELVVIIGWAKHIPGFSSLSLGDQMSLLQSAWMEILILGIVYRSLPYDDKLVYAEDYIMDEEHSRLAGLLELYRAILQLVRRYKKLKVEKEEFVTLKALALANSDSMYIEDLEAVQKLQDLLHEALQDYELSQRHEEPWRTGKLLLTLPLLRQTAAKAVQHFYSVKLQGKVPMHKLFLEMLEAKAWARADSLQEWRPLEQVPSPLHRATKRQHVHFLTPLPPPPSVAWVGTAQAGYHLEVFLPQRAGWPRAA

The next data set relates to ESRRB (Homo sapiens). The data set is described as follows: SELEX. As to conditions: no ligand; 25 mM HEPES pH 7.4, 80 mM KCl, 0.2 mM EDTA, 1 mM MgCl2, 0.1 mM ZnSO4, 2.5 mM DTT, 50 ng/ul poly dI-dC, 0.1% BSA, 1 h room temperature; ligand 100 nM when included; high values mean tight binding; protein in a lysate after overexpression; protein details: HaloTag; only the motif is given.

Results from cells or extracts need not show a direct contact.

For AGGTCAC (double strand) [AGGTCACNNNNN], the binding signal (fold enrichment) in the data set with ESRRG (Homo sapiens) (ligand #4 of Fig. 1b, 100 nM) is 28.1. For the sequence AGGTCAT (double strand) [AGGTCATNNNNN], the binding signal (fold enrichment) in the data set with ESRRG (Homo sapiens) (no ligand) was determined as 46.5; with ESRRB (Homo sapiens), 356.
